These are yes or no findings as the source states them, for the method shown. In cells and extracts the contact can be indirect. Some entries that bind do so weakly or less than the wild type. Tags and fused reporters may be left off the sequences shown.

By UniProt entry, the sequences of proteins in these tests, tags left out.
UniProt Q07812: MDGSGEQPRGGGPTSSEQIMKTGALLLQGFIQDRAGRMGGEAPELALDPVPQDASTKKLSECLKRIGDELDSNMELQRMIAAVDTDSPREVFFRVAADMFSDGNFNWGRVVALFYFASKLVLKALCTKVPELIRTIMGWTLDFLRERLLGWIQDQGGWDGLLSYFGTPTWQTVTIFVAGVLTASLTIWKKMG

Data on one molecule can be found in article PMC3562314.

The target of the experiment is pro-apoptotic Bax (endogenous, 293T cells) (human (endogenous in 293T)) (UniProt Q07812). Nature of the experiment: co-IP; 293T cells transiently transfected, treated with 100 nM STS for 3 h; lysate (1000 to 2000 µg total protein, IP lysis/wash buffer) precipitated with rabbit anti-Bax antibody coupled to AminoLink Plus resin overnight at 4°C, 3 washes; blots with anti-myc or anti-αA/αB-crystallin and anti-Bax.

B1: myc-tagged mouse αB-crystallin (pWPI_αB) (protein, UniProt P23927 1-175)
chain: MDIAIHHPWIRRPFFPFHSPSRLFDQFFGEHLLESDLFSTATSLSPFYLRPPSFLRAPSWIDTGLSEMRLEKDRFSVNLDVKHFSPEELKVKVLGDVIEVHGKHEERQDEHGFISREFHRKYRIPADVDPLTITSSLSSDGVLTVNGPRKQVSGPERTIPITREEKPAVAAAPKK
For the molecule B1, the binding entry is on record as “binds”.
